PubChem BioAssay AID602196 | INSERM | 2012
Here is an unselected part of about 23,000 deposited reagents. 455 of them (2%) were called active. 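Active includes both protection and sensitisation; some change values fall well beyond the stated -50 to +50 range.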 Not all columns of the deposit are shown. No sequences are given here. The record does not give: the amount of reagent.

Aim: 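Modifiers of cisplatin sensitivity in A549 cells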
System: human A549 lung cancer cells
Knock-down reagent: siRNA pair against human genes
Time to read-out: 48 h transfection before cisplatin; time from cisplatin to read-out not stated
Conditions: cisplatin at a dose killing half of control-siRNA cells; exact dose and duration not given
Measurement: 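Shift in cisplatin death relative to control siRNA, from -50 (all cells die) to +50 (no cells die); siRNAs harmful on their own scored 0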
Reading the numbers: two-siRNA summed score (-2 to +2): higher = both siRNAs protect from cisplatin killing; -2 means both sensitise
Active means: 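siRNAs harmful alone (LDH or WST-1) get 0; others get +1 for less and -1 for more cisplatin killing; genes are active when the two siRNAs give the same sign, summing to ±2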
Calls: active = both siRNAs shift cisplatin killing the same way; inactive = no consistent shift, or siRNA harmful alone

With knock-down of IQGAP3 the results were two-siRNA summed score (-2 to +2) = 1; inactive.
Silencing of PPIL4 gave: two-siRNA summed score (-2 to +2) = 0; inactive.
MCM3AP scored two-siRNA summed score (-2 to +2) = -1; inactive.
After knock-down of ALDH3B2 the results were two-siRNA summed score (-2 to +2) = -1; inactive.
LOC391045 gave two-siRNA summed score (-2 to +2) = 0; inactive.
LOC388515 scored two-siRNA summed score (-2 to +2) = 1; inactive.
For C9orf163, the values are two-siRNA summed score (-2 to +2) = 0; inactive.
After knock-down of PRPS1, the screen gave two-siRNA summed score (-2 to +2) = 1; inactive.
Against NEK7, the entry reads two-siRNA summed score (-2 to +2) = 0; inactive.
Against CSNK2A2 the deposit lists two-siRNA summed score (-2 to +2) = 0; inactive.
For TBX10 the deposit lists two-siRNA summed score (-2 to +2) = 1; inactive.
Depletion of RNASEH2A gave: two-siRNA summed score (-2 to +2) = 0; inactive.
For DTWD2 the deposit lists two-siRNA summed score (-2 to +2) = 0; inactive.
For AR the deposit lists two-siRNA summed score (-2 to +2) = -2; active.
LOC387981 scored two-siRNA summed score (-2 to +2) = 0; inactive.
Against CLPP the deposit lists two-siRNA summed score (-2 to +2) = -2; active.
Against CCNYL1, the values are two-siRNA summed score (-2 to +2) = 0; inactive.
For LOC441721, the values are two-siRNA summed score (-2 to +2) = 1; inactive.
TGFA gave two-siRNA summed score (-2 to +2) = 0; inactive.
Depletion of LOC440800 gave: two-siRNA summed score (-2 to +2) = 0; inactive.
Silencing of WDR86 resulted in: two-siRNA summed score (-2 to +2) = -1; inactive.
For LOC441770, the entry reads two-siRNA summed score (-2 to +2) = 0; inactive.
After knock-down of CELF3, the record shows two-siRNA summed score (-2 to +2) = 0; inactive.
After knock-down of TMEM138, the record shows two-siRNA summed score (-2 to +2) = 0; inactive.
LOC342460 showed two-siRNA summed score (-2 to +2) = 0; inactive.
After knock-down of C1QTNF2 the results were two-siRNA summed score (-2 to +2) = 0; inactive.
Against PSMB10, the entry reads two-siRNA summed score (-2 to +2) = 0; inactive.
With knock-down of MGST2, the screen gave two-siRNA summed score (-2 to +2) = 0; inactive.
With knock-down of TAPBPL the results were two-siRNA summed score (-2 to +2) = -1; inactive.
PARP1 gave two-siRNA summed score (-2 to +2) = 1; inactive.
Against EFCAB12, the entry reads two-siRNA summed score (-2 to +2) = -1; inactive.
After knock-down of AGMAT, the record shows two-siRNA summed score (-2 to +2) = 0; inactive.
Against SMAD2 the deposit lists two-siRNA summed score (-2 to +2) = 0; inactive.
LOC441030 scored two-siRNA summed score (-2 to +2) = 0; inactive.
Against YIPF2, the entry reads two-siRNA summed score (-2 to +2) = 0; inactive.
With knock-down of TMPRSS3, the record shows two-siRNA summed score (-2 to +2) = 2; active.
Silencing of MRPL16 came out at: two-siRNA summed score (-2 to +2) = 0; inactive.
PARVB showed two-siRNA summed score (-2 to +2) = 1; inactive.
Knock-down of MSX2 resulted in: two-siRNA summed score (-2 to +2) = 0; inactive.
LOC340913 gave two-siRNA summed score (-2 to +2) = 1; inactive.
